Changes are numbered by the printed parent chain. Results are given in words; binding and its absence hold for the method and conditions named. In cells and extracts the contact can be indirect. Some results given as binding are weak or reduced against the parent protein; the word gives no strength.
Key:
[1] = target: T1, TbREL1 E119A (Trypanosoma brucei) (UniProt P86926); assay: pull-down; His6-TbREL1 TNT mixture mixed with an equal volume of untagged KREPA2 TNT mixture, captured on magnetic His-tag isolation beads (Dynabeads); binding buffer 50 mM NaPO4 pH 8.0, 300 mM NaCl, 0.01% Tween 20; 20-30 min at 4°C; three washes; [35S]-methionine-labelled proteins on 10% SDS-PAGE, PhosphorImager; KREPA2-only control for background
T1 sequence (chain, [35S]-methionine labelled): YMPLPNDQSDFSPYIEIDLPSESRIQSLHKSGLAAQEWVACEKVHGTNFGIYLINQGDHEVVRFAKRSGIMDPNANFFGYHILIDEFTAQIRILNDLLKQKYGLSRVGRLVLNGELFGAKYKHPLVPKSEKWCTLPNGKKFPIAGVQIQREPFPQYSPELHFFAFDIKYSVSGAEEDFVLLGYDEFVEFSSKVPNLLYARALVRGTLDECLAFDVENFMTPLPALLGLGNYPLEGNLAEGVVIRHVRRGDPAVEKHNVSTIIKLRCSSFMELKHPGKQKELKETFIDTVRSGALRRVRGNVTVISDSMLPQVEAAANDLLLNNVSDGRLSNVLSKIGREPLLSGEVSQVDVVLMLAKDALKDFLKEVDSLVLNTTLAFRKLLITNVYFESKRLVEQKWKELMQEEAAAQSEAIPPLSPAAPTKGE

[2] = target: T2, TbREL1 T264A (Trypanosoma brucei) (UniProt P86926); assay: as above
T2 sequence (chain, [35S]-methionine labelled): T1 sequence (chain, [35S]-methionine labelled) with A75E, T220A

B1: KREPA2 (natural protein)
chain: MYRRFFRSAAVKHLGTTSAQCLMRATKYPCGAMCRNASSCHPQTLGYQQRFQSTTDKKFHCSVCKKPFRLEMAAKLHLQQAHGGDGSVEAGPGPGVEASSVNVVSTPVPSPISPVERTFVDEEERRPRRMRPTPKPLHQPDRDIPAAAMEEMLGVWDKIGLNRLEGNFVHSTMVMKVFAAPPDVSEIPLYEHVAPEGENPFDSLDHMTTGTVDATYVGHDAFAEVDLVDPFVAAPDQTLNPFRAGKVRNPFTRISPTQREVVKPLQPPQPKEEPLKAPVTPFGQLPMFGQTREPSASFAAAAVSVQAAANPNEVSSPFAAAVSSSPFVGQVASPFAPAQDVAGSPFEASPCAASSPFVTAGGQETSPFAAPSTPASFGQGSLFPPMGTGAPGFTAITETEQRQQELEHGCPTCGKKFSTFEGAAMHSKSKHGIVLESKKVKDRLNRKGVPDLPAYVPSPVDLSSTSPFGTRSAIGASWAETELIPHAQCVSNITIVGRVLDVSQASENVSHVTVFVEGERSGEEETLTLCCFGEVSQKIRGTLKRNATIFASGTLRLHPVYEASNNKYYVSPVVHVSMPTGTLAVIT
modifications: [35S]-methionine labelled
notes: KREPA2 of T. brucei, the KREPA2 open reading frame, expressed untagged (63 kDa); source: in vitro translated (TNT reticulocyte lysate coupled transcription and translation system, Promega)
- binding [1]: binds
- binding [2]: binds
